Source: US20230192863A1
No constants are given. Whether binding was seen depends on the method and setting. Binding seen in cells or lysates may run through a third protein. Some entries that bind do so weakly or less than the wild type.

By UniProt entry, the sequences of proteins in these tests, tags left out. Residues count along the entry.
UniProt E9Q1P8, residues 2-570: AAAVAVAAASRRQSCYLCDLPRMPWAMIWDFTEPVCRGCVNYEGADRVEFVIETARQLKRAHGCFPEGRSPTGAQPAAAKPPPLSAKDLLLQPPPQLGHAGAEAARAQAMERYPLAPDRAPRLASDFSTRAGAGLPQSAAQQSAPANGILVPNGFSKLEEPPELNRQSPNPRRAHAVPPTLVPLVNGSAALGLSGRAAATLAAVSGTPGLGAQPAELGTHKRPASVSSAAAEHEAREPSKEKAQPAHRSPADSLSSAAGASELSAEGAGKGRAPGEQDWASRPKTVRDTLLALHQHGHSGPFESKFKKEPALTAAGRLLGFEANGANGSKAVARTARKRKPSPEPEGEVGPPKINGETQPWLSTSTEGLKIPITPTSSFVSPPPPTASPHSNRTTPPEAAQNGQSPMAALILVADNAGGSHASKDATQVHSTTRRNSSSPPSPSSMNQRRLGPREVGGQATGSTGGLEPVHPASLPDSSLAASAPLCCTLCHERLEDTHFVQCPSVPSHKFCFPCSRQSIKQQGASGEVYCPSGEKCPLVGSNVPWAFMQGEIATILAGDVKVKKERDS

Molecular target: T1, interferon regulatory factor-2 (IRF2) (mouse) (UniProt P23906)
T1 sequence (looked up): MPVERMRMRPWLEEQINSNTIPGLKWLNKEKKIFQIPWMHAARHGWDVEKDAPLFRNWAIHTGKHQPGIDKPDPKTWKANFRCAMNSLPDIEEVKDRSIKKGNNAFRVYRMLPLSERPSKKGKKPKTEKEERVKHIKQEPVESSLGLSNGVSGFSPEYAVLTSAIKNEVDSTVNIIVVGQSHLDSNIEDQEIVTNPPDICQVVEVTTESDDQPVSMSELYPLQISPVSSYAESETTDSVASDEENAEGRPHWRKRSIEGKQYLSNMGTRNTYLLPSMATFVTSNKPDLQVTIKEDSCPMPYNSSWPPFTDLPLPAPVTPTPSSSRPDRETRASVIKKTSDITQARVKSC
Test: co-immunoprecipitation of IRF2 from MM1 cells, immunoblot for IRF2BP2

## IRF2 binding protein 2 (IRF2BP2) (from UniProt E9Q1P8 2-570)
  binding: binds
